These are yes or no findings as the source states them, for the method shown. In cells and extracts the contact can be indirect. Some binding calls cover weakened binding; strength is not graded here.

The chains behind the UniProt entries cited, without tags or fusion partners.
UniProt Q16665: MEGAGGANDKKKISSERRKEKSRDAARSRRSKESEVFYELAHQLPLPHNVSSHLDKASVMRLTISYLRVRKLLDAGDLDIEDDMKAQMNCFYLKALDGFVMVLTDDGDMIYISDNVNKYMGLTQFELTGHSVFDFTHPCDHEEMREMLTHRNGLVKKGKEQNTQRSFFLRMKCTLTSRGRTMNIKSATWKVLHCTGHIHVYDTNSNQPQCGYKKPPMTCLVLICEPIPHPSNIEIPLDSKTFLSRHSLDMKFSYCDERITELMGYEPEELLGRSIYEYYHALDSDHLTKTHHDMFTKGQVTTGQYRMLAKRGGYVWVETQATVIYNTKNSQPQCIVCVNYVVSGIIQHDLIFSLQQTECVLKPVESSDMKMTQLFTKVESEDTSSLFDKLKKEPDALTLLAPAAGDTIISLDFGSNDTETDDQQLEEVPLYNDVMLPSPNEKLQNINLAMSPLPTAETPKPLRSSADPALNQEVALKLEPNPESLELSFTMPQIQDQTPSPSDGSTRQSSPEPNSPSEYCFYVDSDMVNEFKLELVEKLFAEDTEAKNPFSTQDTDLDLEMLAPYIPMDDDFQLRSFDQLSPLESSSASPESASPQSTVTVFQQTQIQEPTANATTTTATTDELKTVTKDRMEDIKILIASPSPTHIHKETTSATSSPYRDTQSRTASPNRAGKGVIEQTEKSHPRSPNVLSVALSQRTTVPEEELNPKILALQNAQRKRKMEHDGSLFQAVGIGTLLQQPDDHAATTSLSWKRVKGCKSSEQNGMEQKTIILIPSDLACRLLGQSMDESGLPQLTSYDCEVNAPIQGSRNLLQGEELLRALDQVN
UniProt P14618: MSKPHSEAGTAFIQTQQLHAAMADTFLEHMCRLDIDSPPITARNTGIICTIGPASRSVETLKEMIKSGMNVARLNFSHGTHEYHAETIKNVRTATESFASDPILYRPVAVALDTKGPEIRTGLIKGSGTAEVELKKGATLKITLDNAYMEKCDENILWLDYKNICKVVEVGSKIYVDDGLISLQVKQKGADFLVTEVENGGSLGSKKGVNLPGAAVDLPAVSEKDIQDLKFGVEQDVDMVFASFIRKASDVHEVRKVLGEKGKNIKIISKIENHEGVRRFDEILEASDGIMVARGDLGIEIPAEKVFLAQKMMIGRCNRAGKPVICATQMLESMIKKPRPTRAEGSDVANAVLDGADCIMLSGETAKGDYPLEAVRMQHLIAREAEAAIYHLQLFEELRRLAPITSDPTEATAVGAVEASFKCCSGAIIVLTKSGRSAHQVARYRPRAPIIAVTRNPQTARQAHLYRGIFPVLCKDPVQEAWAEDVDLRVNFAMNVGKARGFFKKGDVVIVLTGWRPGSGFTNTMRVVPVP

The target of experiment [1] is Hypoxia-inducible factor-1 alpha (HIF-1α) (human (endogenous in A549)) (UniProt Q16665). Kind of experiment: co-IP; reciprocal endogenous co-IP; AC020978-knockdown, AC020978-overexpressing and control groups; which protein was precipitated is not given.
For experiment [2] the target is unchanged. Kind of experiment: proximity ligation; Duolink in situ PLA on fixed, permeabilised A549 cells with anti-PKM2 and anti-HIF-1α antibodies; AC020978-knockdown, AC020978-overexpressing and control groups.

Turning to “Pyruvate kinase isozymes M2 (PKM2) (from UniProt P14618 1-531)”, the binding result in experiment [1] and in experiment [2] was “binds” throughout.

The record behind these values is PMC7163453.
